Some of these results come from one statement about several compounds together. Ends that are not written are not given here.
Tested on: HL60 cells
Assay: HL60 cell viability (cytotoxicity) assay, Annexin V FITC/PI flow cytometry
Type: cell-based, human
Settings: EC50 compared with ST-3
Protocol: HL60 PML suspension cells were set at a density of 3.5×10^3 cells/well in 150 μL of RPMI+1.5% fetal bovine serum (FBS) in a 96 well dish. ST-3, reconstituted at a concentration of 10 mg/mL in 20 mM His, pH 7.5, was added to each well at a volume of 50 μL to a final concentration range of 0-80 μM. Cells were incubated with ST-3 for 48 hours at 37° C. Cell viability was quantified by flow cytometry using an Abcam Annexin V FITC apoptosis detection kit. Briefly, cells were washed with PBS and resuspended in 1× assay buffer containing Annexin V FITC and propidium iodide (PI). Annexin V detects apoptotic cells, and PI stains dead cells. After staining, apoptotic cells show green fluorescence, dead cells show red and green fluorescence, and live cells show little or no fluorescence. Cells were selected for analysis based on forward scatter (FSC) vs. side scatter (SSC), and analyzed by BD Accuri C6 Plus flow cytometer to detect Annexin V-FITC binding (Ex=488 nm; Em=530 nm) using FITC signal detector and PI staining by the phycoerythrin emission signal detector. Percentage of Annexin V^low and PI^low were quantified and presented as % Viability. […]
ST-13 was further examined in various human cancer cell lines, as was a second retro-inverso variant, ST-14. […] Cell viability was quantified by flow cytometry using an Abcam Annexin V FITC apoptosis detection kit. […]

Sequence	increase in activity over ST-3
RQIKIWFQNRRMKWKKLEGECAGLEARNRELKERAESV [ST-8]	3-6 fold
RQIKIWFQNRRMKWKKLEGECQGLEARLRELKERAESV [ST-7]	3-6 fold
